Residue numbers refer to the chain shown, from its start. In names and notes the source's numbering stands. These are yes or no findings as the source states them, for the method shown. Binding seen in cells or lysates may run through a third protein. Some results given as binding are weak or reduced against the parent protein; the word gives no strength. Tags and fused reporters may be left off the sequences shown.
Tests used:
Assay in all cases: co-IP; V5-FEZ1 co-expressed with GFP-MARKs in HEK 293 cells; lysis in HNE buffer (150 mM NaCl, 1 mM EDTA, 1% Triton X-100, 50 mM Hepes, pH 7.2); precipitated with anti-GFP antibodies and protein G-Sepharose; immunoblot
GFP-MARK1 (human) = GFP-MARK1 (human) (UniProt Q9P0L2)
GFP-MARK3 (human) = GFP-MARK3 (human) (UniProt P27448)
GFP-MARK2 (human) = GFP-MARK2 (human) (UniProt Q7KZI7)

Sequences of proteins named here, by UniProt entry; tags and fusion partners are left off.
UniProt Q9P0L2: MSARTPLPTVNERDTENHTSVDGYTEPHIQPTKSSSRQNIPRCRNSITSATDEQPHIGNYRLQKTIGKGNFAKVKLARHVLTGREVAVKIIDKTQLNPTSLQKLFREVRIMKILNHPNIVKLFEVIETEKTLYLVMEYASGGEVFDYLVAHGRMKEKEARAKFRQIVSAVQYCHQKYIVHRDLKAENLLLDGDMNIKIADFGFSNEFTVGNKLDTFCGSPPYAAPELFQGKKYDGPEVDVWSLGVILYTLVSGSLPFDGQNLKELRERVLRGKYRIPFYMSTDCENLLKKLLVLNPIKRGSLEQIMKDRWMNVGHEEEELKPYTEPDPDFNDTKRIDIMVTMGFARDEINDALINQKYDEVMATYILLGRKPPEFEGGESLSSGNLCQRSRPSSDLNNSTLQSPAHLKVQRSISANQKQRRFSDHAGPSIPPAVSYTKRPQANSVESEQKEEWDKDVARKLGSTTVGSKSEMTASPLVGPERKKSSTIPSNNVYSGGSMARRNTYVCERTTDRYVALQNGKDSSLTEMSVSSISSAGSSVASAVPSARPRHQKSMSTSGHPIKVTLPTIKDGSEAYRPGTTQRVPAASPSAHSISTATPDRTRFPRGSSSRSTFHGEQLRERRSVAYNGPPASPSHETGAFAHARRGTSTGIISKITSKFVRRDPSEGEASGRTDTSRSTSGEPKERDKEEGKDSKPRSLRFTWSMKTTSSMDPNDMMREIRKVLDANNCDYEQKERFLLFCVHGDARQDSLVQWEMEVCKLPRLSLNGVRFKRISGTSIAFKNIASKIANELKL
UniProt P27448: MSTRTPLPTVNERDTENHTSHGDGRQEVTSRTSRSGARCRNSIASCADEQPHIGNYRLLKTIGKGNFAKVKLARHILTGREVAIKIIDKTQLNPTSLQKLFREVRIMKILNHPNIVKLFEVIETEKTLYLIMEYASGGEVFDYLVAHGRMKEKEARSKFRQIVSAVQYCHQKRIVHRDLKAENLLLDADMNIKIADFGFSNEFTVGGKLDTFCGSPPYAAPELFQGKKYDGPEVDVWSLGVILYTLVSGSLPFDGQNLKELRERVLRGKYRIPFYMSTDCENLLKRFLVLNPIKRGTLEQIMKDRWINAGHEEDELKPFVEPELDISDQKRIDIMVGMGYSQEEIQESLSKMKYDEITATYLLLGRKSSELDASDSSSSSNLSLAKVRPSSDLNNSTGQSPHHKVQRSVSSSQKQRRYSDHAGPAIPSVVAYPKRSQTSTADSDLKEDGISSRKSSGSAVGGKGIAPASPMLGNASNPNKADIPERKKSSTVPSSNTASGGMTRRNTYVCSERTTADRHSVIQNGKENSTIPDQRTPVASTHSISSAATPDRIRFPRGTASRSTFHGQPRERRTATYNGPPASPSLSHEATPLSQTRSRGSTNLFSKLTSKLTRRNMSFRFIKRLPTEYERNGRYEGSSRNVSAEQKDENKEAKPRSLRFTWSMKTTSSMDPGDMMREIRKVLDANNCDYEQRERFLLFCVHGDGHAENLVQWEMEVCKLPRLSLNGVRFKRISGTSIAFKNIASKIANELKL
UniProt Q7KZI7: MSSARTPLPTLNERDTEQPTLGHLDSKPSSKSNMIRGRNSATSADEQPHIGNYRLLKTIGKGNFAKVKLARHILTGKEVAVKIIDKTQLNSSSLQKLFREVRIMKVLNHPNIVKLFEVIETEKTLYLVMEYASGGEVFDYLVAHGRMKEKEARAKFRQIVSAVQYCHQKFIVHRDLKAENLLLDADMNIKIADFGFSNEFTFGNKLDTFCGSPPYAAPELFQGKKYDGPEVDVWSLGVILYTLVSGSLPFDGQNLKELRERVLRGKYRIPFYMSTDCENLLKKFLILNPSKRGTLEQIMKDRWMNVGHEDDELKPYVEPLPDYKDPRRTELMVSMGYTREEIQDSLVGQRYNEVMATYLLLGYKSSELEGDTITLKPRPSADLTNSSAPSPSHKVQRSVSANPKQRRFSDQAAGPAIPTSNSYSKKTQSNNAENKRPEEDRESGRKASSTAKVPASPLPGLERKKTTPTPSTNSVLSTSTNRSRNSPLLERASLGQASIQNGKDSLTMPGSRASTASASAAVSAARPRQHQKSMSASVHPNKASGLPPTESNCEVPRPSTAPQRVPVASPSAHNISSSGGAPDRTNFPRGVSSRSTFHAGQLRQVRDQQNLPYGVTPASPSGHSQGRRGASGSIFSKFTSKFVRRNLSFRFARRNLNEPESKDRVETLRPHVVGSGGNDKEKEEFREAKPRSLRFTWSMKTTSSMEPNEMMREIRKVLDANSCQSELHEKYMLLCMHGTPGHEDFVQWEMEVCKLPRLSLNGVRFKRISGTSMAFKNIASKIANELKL

Measured: binding

B1: V5-tagged wild type FEZ1 (protein, UniProt Q99689 1-392)
chain: MEAPLVSLDEEFEDLRPSCSEDPEEKPQCFYGSSPHHLEDPSLSELENFSSEIISFKSMEDLVNEFDEKLNVCFRNYNAKTENLAPVKNQLQIQEEEETLQDEEVWDALTDNYIPSLSEDWRDPNIEALNGNCSDTEIHEKEEEEFNEKSENDSGINEEPLLTADQVIEEIEEMMQNSPDPEEEEEVLEEEDGGETSSQADSVLLQEMQALTQTFNNNWSYEGLRHMSGSELTELLDQVEGAIRDFSEELVQQLARRDELEFEKEVKNSFITVLIEVQNKQKEQRELMKKRRKEKGLSLQSSRIEKGNQMPLKRFSMEGISNILQSGIRQTFGSSGTDKQYLNTVIPYEKKASPPSVEDLQMLTNILFAMKEDNEKVPTLLTDYILKVLCPT
binds: all assays above

B2: V5-tagged FEZ1 (S58A) (protein, UniProt Q99689 1-392)
chain: B1 chain with S58A
binds: all assays above

— PMC4887895
